Data on 57 molecules can be found in PubChem BioAssay AID2685 (National Center for Advancing Translational Sciences (NCATS), 2010).

SMILES strings stand for the structures. Where “and” joins values, the source holds several entries; their conditions need not be identical. Equal entries are not always repeated. The list shows a part of the results. Further columns of the screen follow, without active or inactive calls. Most of these compounds were active or inconclusive in the main read-out, so they are no random draw. Potencies come from curve fits of mixed quality, noted in brackets.

A short description of this experiment: qHTS Assay for Lipid Storage Modulators in Drosophila S3 Cells.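 As to cell number change: cells counted by Cell Tracker Red CMTPX staining in the red channel.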 The settings on record: BODIPY lipid droplet fluorescence, 18-24 h; for cell number change: measured here: cell count max response, cells fed with added oleic acid. Summed up: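 Drosophila S3 cells got compounds at several concentrations plus oleic acid (400 uM solution). Laser-scanning cytometry with 488 nm excitation read lipid droplets at 500-530 nm and cells at 575-640 nm. Percent activity was relative to 20 uM Triacsin C.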

The mark [1] stands for this setting: measured here: lipid fluorescence (Fed channel) AC50, cells fed with added oleic acid.
[2] abbreviates: measured here: cell number channel AC50, cells fed with added oleic acid.

In the case of `Cc1ccc(C)c(NC(=S)N2CCC(NC(=O)c3ccccc3)CC2)c1`, the cell number change is 21.2%.

With `CCOc1ccc(OCCCCN2CCCC2)cc1`, the cell number change is -6.28%. Further, under setting [1], the AC50 was 0.0517 µM [falling, full curve, poor fit].

As to `COc1ccc(CCN(Cc2cc3cc(C)ccc3[nH]c2=O)C(=O)N2CCCC2)cc1OC`, the cell number change is -7.41%. Besides, the concentration at half-maximal activity (AC50) under setting [1] was 4.61 µM [rising, partial curve, poor fit].

For `CC(C)(C)c1ccc(OCCON2C(=O)CCC2=O)c(Cl)c1`, the cell number change was -108%.

Turning to `COc1ccccc1C(=O)NCC(=O)N/N=C/c1cc(Br)ccc1OCc1ccccc1`, the cell number change was -17.2%. The AC50 under setting [2] is 6.51 µM [rising, partial curve, poor fit].

Take `O=C(N/N=C/c1ccc(Cl)cc1Cl)c1ccncc1`: the cell number change was -5.77%. The AC50 under setting [1] was 16.4 µM [rising, single point].

Regarding `CCCC(C)c1nnc(NC(=O)C(=O)OCC)s1` (configuration not stated), the cell number change is 27.9%. The AC50 under setting [1] was 25.1 µM [rising, single point].

For `CCC(C)NC(=O)COc1ccc(OCc2ccccc2)cc1` (configuration not stated), the cell number change is 17.5%.

On to `O=C(NC1CCCC1)c1ccc(COCC(F)(F)F)o1`, for which the cell number change is 4.84%. Further, the AC50 under setting [1] is 7.31 µM [falling, partial curve].

`Cc1ccccc1C=O`: the cell number change was -37.4%. The half-maximal activity concentration (AC50) under setting [2] was 25.9 µM [falling, single point]. Under setting [1], the AC50 was 4.61 µM [falling, single point].

On to `Oc1ccc(C[C@H]2CNCCN2CCc2cc(C(F)(F)F)cc(C(F)(F)F)c2)cc1`, for which the cell number change was 7.94%. For the same molecule, the concentration at half-maximal activity (AC50) under setting [1] was 14.6 µM [rising, single point].

In the case of `CCOc1cc(/C=N/NC(=O)c2nnn(-c3nonc3N)c2C)ccc1OCc1ccc(F)cc1`, the cell number change amounted to 2.36%. The concentration at half-maximal activity (AC50) under setting [1] was 0.116 µM [rising, full curve, poor fit].

As to `Cn1c2c(c(=O)n(C)c1=O)C(C(F)(F)F)(C(F)(F)F)N=C(CCC1CCCCC1)N2`, the AC50 is, setting by setting: under setting [2], 6.51 µM [rising, single point]; under setting [1], 2.06 µM [rising, partial curve].

On to `COCCC(=O)N1CCC(Oc2ccc(C(=O)NCCC3=CCCCC3)cc2)CC1`, for which the half-maximal activity concentration (AC50) under setting [1] was 4.11 µM [rising, single point].

In the case of `CCN(CC)CCCNC(=O)CNC(=S)N(CCCN1CCOCC1)Cc1cccs1`, the cell number change is -4.15%. Moreover, under setting [2], the AC50 is 0.731 µM [rising, partial curve, poor fit].

With `CCCCN(C(=O)c1ccc(N2CCCC2=O)cc1)c1c(N)n(CC(C)C)c(=O)[nH]c1=O`, the cell number change worked out at 2.34%.

For `O=[N+]([O-])c1ccc(C2Oc3ccccc3C3CC(c4ccccc4)=NN32)s1` (configuration not stated), the cell number change is -16.1%. For the same molecule, under setting [2], the AC50 is 2.91 µM [rising, single point]. In addition, the AC50 under setting [1] was 3.66 µM [rising, single point].

For `Cc1c(NC(=O)c2ccc(COc3ccc4ccccc4c3)o2)c(=O)n(-c2ccccc2)n1C`, the cell number change came out at 1.36%.

Take `COc1cc(NC(=O)CN2C(=O)NC(c3ccccc3)(c3ccccc3)C2=O)cc(OC)c1`: the cell number change was determined as 29.8%. Besides, the AC50 under setting [1] is 29.1 µM [rising, single point].

With `CC(=O)NC(Cc1ccc(F)cc1)C(=O)NC1CCN(C(=O)Nc2ccc(F)cc2)CC1` (configuration not stated), the cell number change worked out at 17.8%. Moreover, the AC50 under setting [2] was 1.84 µM [rising, partial curve, poor fit]. Moreover, the concentration at half-maximal activity (AC50) under setting [1] is 6.51 µM [falling, single point].

In the case of `O=C(N/C(=C/c1ccco1)C(=O)N1CCCC1)c1cccs1`, the cell number change is -31.1%. Further, the concentration at half-maximal activity (AC50) under setting [2] is 29.1 µM [falling, single point]. Besides, under setting [1], the concentration at half-maximal activity (AC50) was 13 µM [falling, partial curve, poor fit].

For the molecule `CC(Nc1nc(N2CCCCC2)nc2ccccc12)c1ccccc1` (configuration not stated), the half-maximal activity concentration (AC50) reads like this: under setting [2], 1.03 µM [rising, full curve, poor fit]; under setting [1], 29.1 µM [falling, single point].

As to `O=C(NCc1ccccc1)c1onc(CSc2ccccn2)c1C(=O)NCc1ccccc1`, the cell number change was -0.992%. Besides, the concentration at half-maximal activity (AC50) under setting [1] was 6.51 µM [rising, single point].

Turning to `Cc1cc(C)c[n+](-c2nc3ccccc3nc2C(=C=[N-])C#N)c1`, the cell number change was -6.89% and -15.3%. Further, the concentration at half-maximal activity (AC50) under setting [1] was 29.1 µM [rising, single point].

In the case of `CNC(=S)NCC(O)c1ccc([N+](=O)[O-])cc1` (configuration not stated), the cell number change was determined as 8.55%.

As to `O=C1CCCC(=NCc2ccco2)C1`, the cell number change worked out at 11.9%. Moreover, under setting [1], the half-maximal activity concentration (AC50) was 1.16 µM [falling, full curve, poor fit].

Consider `COc1cc(OC)nc(NC(=O)C(C)C)n1`, for which the cell number change was -12%. The concentration at half-maximal activity (AC50) under setting [1] is 16.4 µM [falling, single point].

As for `CCOCCn1c(C)c(C(=O)OCC)c2cc(O)c3ccccc3c21`, the cell number change was -50.6%. The AC50 under setting [2] was 14.6 µM [falling, partial curve]. The half-maximal activity concentration (AC50) under setting [1] was 4.11 µM [falling, single point].

On to `NC(=O)COC(=O)CCCc1c[nH]c2ccccc12`, for which the cell number change is -15.1%. Further, under setting [2], the AC50 was 0.058 µM [falling, full curve, poor fit].

Take `C=CCNC(=O)C1CCN(S(C)(=O)=O)CC1`: the cell number change was determined as 4.59%. For the same molecule, the AC50 under setting [1] was 0.116 µM [falling, partial curve, poor fit].

For the molecule `CCCN(Cc1ccc(C)cc1)C(=O)c1ccc(CNS(=O)(=O)c2ccc(C(C)=O)cc2)cc1`, the cell number change was -8.81%. Further, the AC50 under setting [1] was 29.1 µM [falling, single point].

With `COc1cc(NC(=O)C2CCC(CNS(=O)(=O)c3csc(C(N)=O)c3)CC2)cc(OC)c1` (configuration not stated), the cell number change worked out at 8.96%.

For `C=CCC(=O)OCCCCCCOc1ccc(C(=O)O)cc1`, the cell number change was -4.95%. Moreover, the AC50 under setting [1] is 3.66 µM [falling, partial curve].

Turning to `COc1ccc(NC(=O)c2ccc(N(C)S(C)(=O)=O)cc2)cc1OC`, the cell number change stood at 10.4%. For the same molecule, under setting [1], the AC50 was 5.17 µM [rising, full curve].

Turning to `CCN1C(=O)CS/C1=C(\C#N)S(=O)(=O)c1ccccc1`, the cell number change was 35.8%. Further, the half-maximal activity concentration (AC50) under setting [2] is 23.1 µM [rising, single point]. Besides, the AC50 under setting [1] is 32.6 µM [falling, single point].

With `CCC(Sc1nc2ncccc2[nH]1)C(=O)NC1CCC(C)CC1` (configuration not stated), the cell number change was found to be 15.3%. Besides, the AC50 under setting [1] was 29.1 µM [falling, single point].

As to `O=C(NCCc1ccco1)c1nn(Cc2ccccc2)c(=O)c2ccccc12`, the cell number change is -10.8%. In addition, under setting [1], the AC50 is 6.51 µM [falling, partial curve, poor fit].

With `CN1C(=O)/C(=C\c2cc(N=Nc3ccccc3)ccc2O)SC1=S`, the cell number change was -16.2%. For the same molecule, the concentration at half-maximal activity (AC50) under setting [2] is 1.3 µM [falling, full curve]. Also, the AC50 under setting [1] is 0.231 µM [falling, full curve, poor fit].

As to `Nc1ccn(Cc2ccccc2)n1`, the cell number change was -10.7%. The AC50 under setting [2] was 4.11 µM [rising, single point]. Moreover, the AC50 under setting [1] was 2.91 µM [rising, single point].

Regarding `Cc1ccc2nc(C)c3c(c2c1)OC(C(C)(Cl)Br)C3` (configuration not stated), the cell number change was -51.4%. Also, the AC50 under setting [2] was 29.1 µM [falling, single point]. Moreover, under setting [1], the concentration at half-maximal activity (AC50) is 29.1 µM [falling, single point].

For `O=C(COC(=O)c1ccc(O)cc1)Nc1ccccc1-c1ccccc1`, the cell number change came to 30.9%. The AC50 under setting [2] is 11.6 µM [rising, partial curve]. Also, under setting [1], the concentration at half-maximal activity (AC50) was 6.51 µM [rising, single point].

`Cc1ccc(C(=O)C(C)OC(=O)c2n[nH]c(=O)c3ccccc23)cc1` (configuration not stated): the cell number change was -1.1%. Besides, the AC50 under setting [1] is 0.259 µM [falling, full curve, poor fit].

As to `C/C(CCC(C)C)=N\Nc1ccc(S(N)(=O)=O)cc1[N+](=O)[O-]`, under setting [2], the AC50 was 4.61 µM [falling, single point].

On to `CCOC(=O)[C@@H](C)N(Cc1ccc(OC)cc1)S(=O)(=O)N(Cc1ccccc1)[C@H](C(=O)OC)C(C)C`, for which the cell number change was -14.8%.

Regarding `CN(C)c1ccc(CNCCC2CCOC(C)(C)C2)cc1` (configuration not stated), the cell number change was found to be 17.7%. Moreover, the half-maximal activity concentration (AC50) under setting [2] is 2.31 µM [rising, single point].

As to `COc1cc(OC)cc(-c2n[nH]c(=S)n2-c2ccc3c(c2)OCCO3)c1`, the cell number change was found to be 8.6%. Also, the half-maximal activity concentration (AC50) under setting [2] was 4.11 µM [falling, single point]. Besides, the concentration at half-maximal activity (AC50) under setting [1] was 1.03 µM [falling, partial curve, poor fit].

Take `COc1ccc(CCNC(=O)CN2C(=O)C(=O)N(C3CCCC3)C2=O)cc1OC`: the cell number change is -3.29%. For the same molecule, the concentration at half-maximal activity (AC50) under setting [1] was 6.51 µM [falling, single point].

Regarding `O=[N+]([O-])c1c(NCCCO)cc(N2CCN(Cc3ccc4c(c3)OCO4)CC2)c2nonc12`, the cell number change was -50.6%. For the same molecule, the concentration at half-maximal activity (AC50) under setting [2] is 0.00461 µM [falling, full curve, poor fit]. Under setting [1], the AC50 was 1.84 µM [falling, partial curve].

For `CCN1CCN(c2ccc(S(=O)(=O)N3CCCCC3)cc2NC(=O)/C=C/c2ccc(OC(F)F)cc2)CC1`, the cell number change is -25%. Also, the AC50 under setting [2] is 4.61 µM [rising, single point].

For the molecule `O=C(OCC(=O)N1CCc2ccccc21)c1cc(S(=O)(=O)N2CCOCC2)ccc1F`, the cell number change is -71.7%. Also, the AC50 under setting [2] was 16.4 µM [falling, single point].

For the molecule `C/C(=N\NC(=O)c1ccccc1O)C1CC1`, the cell number change came out at 26.1%. Moreover, the half-maximal activity concentration (AC50) under setting [1] was 0.206 µM [rising, single point].

`Cc1ccc(CNC(=O)C2CCN(C(=O)Nc3ccc(C)cc3)CC2)cc1`: the cell number change was -6.85%. In addition, the AC50 under setting [1] was 29.1 µM [rising, single point].

As to `CCC(=O)c1ccc(OCC(=O)OCC(=O)N(C)CC(=O)Nc2ccc(F)cc2)cc1`, the cell number change turned out to be 6.37%. The AC50 under setting [1] was 4.11 µM [falling, single point].

Take `CCCn1c(NC(=S)Nc2ccccc2)nc2ccccc21`: the cell number change amounted to 0.302%. The AC50 under setting [1] was 0.82 µM [falling, full curve, poor fit].

As for `COc1ccc(S(=O)(=O)NCCSc2ccccc2)cc1OC`, the cell number change was 34.1%. The concentration at half-maximal activity (AC50) under setting [2] is 29.1 µM [rising, single point].

On to `C[C@H](NC(=O)OC(C)(C)C)c1nnc(SCC(=O)c2ccc(Cl)cc2)o1`, for which the cell number change was 3.58%. The half-maximal activity concentration (AC50) under setting [1] was 0.116 µM [falling, full curve].

For the molecule `CCCc1ccc(OCc2ccc(C(=O)N3CCCC3)o2)cc1`, the cell number change is -16.7%. In addition, the AC50 under setting [2] is 0.164 µM [falling, single point]. In addition, under setting [1], the AC50 was 29.1 µM [falling, partial curve, poor fit].

A word on the AC50: it is the midpoint of the concentration-response curve, whichever way the signal moves.
